Data from patent US20030099647A1.
Results are given in words; binding and its absence hold for the method and conditions named. Some entries that bind do so weakly or less than the wild type.

Sequences of proteins named here, by UniProt entry; tags and fusion partners are left off. Residues count along the entry.
UniProt P01579, residues 24-166: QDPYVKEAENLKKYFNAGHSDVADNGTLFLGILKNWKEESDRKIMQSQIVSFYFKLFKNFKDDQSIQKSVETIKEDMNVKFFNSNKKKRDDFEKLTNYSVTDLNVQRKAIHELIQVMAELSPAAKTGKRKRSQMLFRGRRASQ

B1: Fab phage clone "58C" (Fab, V domains shown)
VH: EVQLLESGGGLVKPGGSLRLSCAASGFTFSSYSMNWVRQAPGKGLEWVSSISSGSSYRYDADSVKGRFTISRDNSKNTLYLQMNSLRAEDTAIYYCADQMGTISGNDYWGQGTLVTVSS
VL: QSVLTQPPSVSVAPGKTATITCGGDNLGGKSLHWYQQKPGQAPVLVVYDDSDRPSGIPERFSGSNSGNTATLTIDRVEDGDEADYYCQVWDGSSDQRVFGGGTRLTVLG
B2: Fab phage clone "RD-B1" (Fab, V domains shown)
VH: QVTLKESGPVLVKPTETLTLTCTVSGFSLSNARMGVSWIRQPPGKALEWLAHIFSNDEESYSTSLKSRLTISKDTSQSQVVLTMTNMDPVDTATYYCARLLLYEGFDPWGQGTLVTVSS
VL: DIVMTHTPLSSPVTLGQPASISCRSSQSLVHSDGNTYLSWLHQRPGQPPRLLIYKISNRFSGVPDRFSGSGAGTDFTLKISRVEAEDVGLYYCMQATQLPYTFGQGTKLEIKR
B3: Fab phage clone "67C" (Fab, V domains shown)
VH: ANTLEESGPTLVQPTQTLTLTCSYSGFSLSSNEAGVGWIRQPPGKAPEWLALLYWDDDKRYSPSLRSRLIVNKDTSKSQVVLTMTNMDPVDTATYYCAHRLVRYGGYSTGGFDVWGQGTTVTVSS
VL: DIVMTHTPLSLPVTPGEPASISCRSSQSLLRSNGYNYLAWYVQKPGQSPQLLIYLASNRASGVPDRFSGSGSGTDFTLKISSVEAEDVGVYYCVHGVHIPYTFGQGTKLEIKR
B4: Fab phage clone "BS-A" (Fab, V domains shown)
VH: QVQLQQWGAGLLKPSETLSLTCAVYGGSFSGYYWSWIRQPPGKGLEWIGEINHSGSTNYNPSLKSRVTISVDTSKNQFSLKLSSVTAADTAVYYCARGRARNWRSRFDYWGQGTLVTVSS
VL: NFMLTQPHSVSESPGKTVTISCTGSSGSIASHYVQWYQQRPGSAPTNVIYEDKERPSGVPDRFSGSIDSSTNSASLTISGLKTEDEADYYCQSYDSSNQWVFGGGTKLTVLG
B5: Fab phage clone "RD-A2" (Fab, V domains shown)
VH: QVQLQQWGAGLLKPSETLSLTCAVYGGSFSGYYWSWIRQPPGKGLEWIGEINHSGSTNYNPSLKSRVTISVDTSKNQFSLKLSSVTAADTAVYYCARDKGSRITIFGVVGSAGFDYWGQGTLVTVSS
VL: DVVMTQSPLSLPVTPGEPASISCRATQSLLHGNGHNYLDWYLQKPGQSPHLLIYMGSNRASGVPGRFSGTESGRNFTLKISRVEAEDVGVYYCMQALQLPPTFGQGTRVDIKR
B6: Fab phage clone "IFN-A" (Fab, V domains shown)
VH: EVQLQQWGAGLLKPSETLSLTCAVYGGSFSGYYWSWIRQPPGKGLEWIGEINHSGSTNYNPSLKSRVTISVDTSKNQFSLKLSSVTAADTAVYYCARGWPTYVWGSYRPKGYFDYWGQGTLVTVSS
VL: EIVLTQSPLSLPVTPGEPASISCRSSQSLLHTNEYNYLDWYLQKPGQSPQLLIYLGSNRAPGVPDRFSGSGSGTDFTLRISRVEADDVGVYYCMQALQTPRTFGQGTKLEIKR
B7: Fab phage clone "57E" (Fab, V domains shown)
VH: QVQLQESGPGLVKPSETLSLTCAVSGGSISSGGYSWSWIRQPPGKGLEWIGYIYHSGSTYYNPSLKSRVTISVDRSKNQFSLKLSSVTAADTAVYYCARGDWGYFDYWGQGTLVTVSS
VL: NFMLTQPHSVSESPGKTVTISCTGSSGSIANNYVHWYQQRPGSAPTTVIFEDDQRPSGVPDRFSGSVDSSSNSASLSISGLKTEDEADYYCQSYDNSNSFVVFGGGTKLTVLG
B8: Fab phage clone "57D" (Fab, V domains shown)
VH: EVQLVQSGGGLVQPGGSLRLSCAASGFTVSSNYMSWVRQAPGKGLEWVSVIYSGGSTYYADSVKGRFTISRDNSKNTLYLQMNSLRAEDTAVYYCARDSDGGDYGYWGQGTLVTVSS
VL: EIVLTQSPGTLSLSPGERATLSCRASQYVSSNSLAWYQQKAGQAPRLLIYGASNRATGIPDRFSGSGSGTDFTLTISRLEPEDFAVYYCQQYGSSPITFGQGTRLEIKR

These binders were tested against E. coli expressed human interferon gamma (hIFNγ) (human) (UniProt P01579) (assay: concentration dependent clonal phage ELISA on coated hIFNγ).
In the case of B1, the binding is reported as “binds”.
B2 was tested, and the binding was “binds”.
In the case of B3, the binding is reported as “binds”.
In the case of B4, the binding is reported as “binds”.
B5 was tested, and the binding was “binds”.
B6 was tested, and the binding was “binds”.
B7 was tested, and the binding was “binds”.
For B8, the binding was “binds”.
